This is one part of the list.
Compound: CC1=C(C(CC(=O)N1)C2=CC=C(C=C2)C(F)(F)F)C(=O)NC3=C(C=C4C(=C3)C=NN4)F
Experiment: log2 fold change, soluble protein after heating vs DMSO (PISA); higher = thermal stabilisation; K562 lysate, 10 uM; active = over 0.2 and 3.5 SD of the protein, either way, in both replicates (recomputed)
How it was run: (§1)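 Quantification was by TMTpro 16plex LC-MS/MS with equalised channel sums, applied to the supernatant after 21,000xg for 90 min. Samples were crude K562 extract at 1 mg/mL protein in PBS pH 7.4 with 1 mM MgCl2, treated with 10 μM compound for 30 min, heated for 3 min across 48°C-58°C, pooled and brought to 0.5% NP-40 at 4°C. Values are log-two fold changes in thermal stability relative to solvent controls, from duplicates.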

Protein sequences, listed by entry. Tags and fused reporters are not part of them. Lines headed by an entry give the natural chain unless they say otherwise; changes in a name come on top.
UniProt P62995: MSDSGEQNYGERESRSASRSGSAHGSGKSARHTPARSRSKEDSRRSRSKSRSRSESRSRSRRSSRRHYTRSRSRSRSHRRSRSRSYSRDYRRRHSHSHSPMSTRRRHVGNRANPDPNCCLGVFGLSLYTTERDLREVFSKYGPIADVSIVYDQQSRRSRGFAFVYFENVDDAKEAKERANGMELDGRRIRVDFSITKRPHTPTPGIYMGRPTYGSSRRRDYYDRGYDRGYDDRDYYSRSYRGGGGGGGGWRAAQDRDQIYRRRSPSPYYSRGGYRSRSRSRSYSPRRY
UniProt Q9P0T7: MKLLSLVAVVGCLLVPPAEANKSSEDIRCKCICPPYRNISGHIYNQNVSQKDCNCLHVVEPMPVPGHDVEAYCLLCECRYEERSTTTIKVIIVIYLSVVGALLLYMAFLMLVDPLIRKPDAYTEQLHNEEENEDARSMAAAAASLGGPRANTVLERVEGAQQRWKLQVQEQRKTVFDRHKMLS
UniProt Q9H3S4: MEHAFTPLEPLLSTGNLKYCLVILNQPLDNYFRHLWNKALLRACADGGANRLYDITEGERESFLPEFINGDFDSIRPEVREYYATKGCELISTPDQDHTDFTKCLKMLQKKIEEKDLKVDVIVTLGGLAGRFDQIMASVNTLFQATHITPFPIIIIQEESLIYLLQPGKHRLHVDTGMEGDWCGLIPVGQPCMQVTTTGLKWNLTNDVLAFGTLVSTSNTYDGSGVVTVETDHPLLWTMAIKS
UniProt P06753, whole entry, looked up: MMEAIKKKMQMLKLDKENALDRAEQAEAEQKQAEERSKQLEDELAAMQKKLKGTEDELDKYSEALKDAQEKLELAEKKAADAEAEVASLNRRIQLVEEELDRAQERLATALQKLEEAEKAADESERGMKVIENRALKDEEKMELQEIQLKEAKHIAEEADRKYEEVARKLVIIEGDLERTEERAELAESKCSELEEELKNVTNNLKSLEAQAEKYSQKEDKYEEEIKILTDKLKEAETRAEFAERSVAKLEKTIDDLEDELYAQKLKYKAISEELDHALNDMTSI
UniProt Q13595: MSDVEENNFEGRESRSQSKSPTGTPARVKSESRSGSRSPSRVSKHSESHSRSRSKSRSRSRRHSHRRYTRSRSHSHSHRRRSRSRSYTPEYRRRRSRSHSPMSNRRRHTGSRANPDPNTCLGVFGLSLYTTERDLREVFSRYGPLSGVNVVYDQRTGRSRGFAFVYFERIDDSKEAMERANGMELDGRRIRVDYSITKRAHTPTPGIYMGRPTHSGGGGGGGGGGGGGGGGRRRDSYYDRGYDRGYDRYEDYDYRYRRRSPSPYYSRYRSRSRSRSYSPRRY
UniProt Q8NFZ5: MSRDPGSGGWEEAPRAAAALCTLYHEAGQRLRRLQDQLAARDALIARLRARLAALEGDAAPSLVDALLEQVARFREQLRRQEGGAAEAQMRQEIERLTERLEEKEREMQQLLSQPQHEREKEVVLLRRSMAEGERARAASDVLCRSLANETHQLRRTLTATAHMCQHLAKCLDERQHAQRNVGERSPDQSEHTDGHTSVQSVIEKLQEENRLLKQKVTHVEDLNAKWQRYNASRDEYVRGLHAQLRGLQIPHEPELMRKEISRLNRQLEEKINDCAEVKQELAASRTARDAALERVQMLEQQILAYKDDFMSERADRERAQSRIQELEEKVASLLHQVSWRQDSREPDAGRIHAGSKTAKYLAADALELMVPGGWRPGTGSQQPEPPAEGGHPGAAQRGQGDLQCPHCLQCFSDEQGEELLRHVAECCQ
UniProt P02585, whole entry, looked up: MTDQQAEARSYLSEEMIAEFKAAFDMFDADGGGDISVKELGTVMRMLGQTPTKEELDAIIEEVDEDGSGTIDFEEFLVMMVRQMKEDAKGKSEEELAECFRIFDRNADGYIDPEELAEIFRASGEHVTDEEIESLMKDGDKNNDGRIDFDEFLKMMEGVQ
UniProt O95271: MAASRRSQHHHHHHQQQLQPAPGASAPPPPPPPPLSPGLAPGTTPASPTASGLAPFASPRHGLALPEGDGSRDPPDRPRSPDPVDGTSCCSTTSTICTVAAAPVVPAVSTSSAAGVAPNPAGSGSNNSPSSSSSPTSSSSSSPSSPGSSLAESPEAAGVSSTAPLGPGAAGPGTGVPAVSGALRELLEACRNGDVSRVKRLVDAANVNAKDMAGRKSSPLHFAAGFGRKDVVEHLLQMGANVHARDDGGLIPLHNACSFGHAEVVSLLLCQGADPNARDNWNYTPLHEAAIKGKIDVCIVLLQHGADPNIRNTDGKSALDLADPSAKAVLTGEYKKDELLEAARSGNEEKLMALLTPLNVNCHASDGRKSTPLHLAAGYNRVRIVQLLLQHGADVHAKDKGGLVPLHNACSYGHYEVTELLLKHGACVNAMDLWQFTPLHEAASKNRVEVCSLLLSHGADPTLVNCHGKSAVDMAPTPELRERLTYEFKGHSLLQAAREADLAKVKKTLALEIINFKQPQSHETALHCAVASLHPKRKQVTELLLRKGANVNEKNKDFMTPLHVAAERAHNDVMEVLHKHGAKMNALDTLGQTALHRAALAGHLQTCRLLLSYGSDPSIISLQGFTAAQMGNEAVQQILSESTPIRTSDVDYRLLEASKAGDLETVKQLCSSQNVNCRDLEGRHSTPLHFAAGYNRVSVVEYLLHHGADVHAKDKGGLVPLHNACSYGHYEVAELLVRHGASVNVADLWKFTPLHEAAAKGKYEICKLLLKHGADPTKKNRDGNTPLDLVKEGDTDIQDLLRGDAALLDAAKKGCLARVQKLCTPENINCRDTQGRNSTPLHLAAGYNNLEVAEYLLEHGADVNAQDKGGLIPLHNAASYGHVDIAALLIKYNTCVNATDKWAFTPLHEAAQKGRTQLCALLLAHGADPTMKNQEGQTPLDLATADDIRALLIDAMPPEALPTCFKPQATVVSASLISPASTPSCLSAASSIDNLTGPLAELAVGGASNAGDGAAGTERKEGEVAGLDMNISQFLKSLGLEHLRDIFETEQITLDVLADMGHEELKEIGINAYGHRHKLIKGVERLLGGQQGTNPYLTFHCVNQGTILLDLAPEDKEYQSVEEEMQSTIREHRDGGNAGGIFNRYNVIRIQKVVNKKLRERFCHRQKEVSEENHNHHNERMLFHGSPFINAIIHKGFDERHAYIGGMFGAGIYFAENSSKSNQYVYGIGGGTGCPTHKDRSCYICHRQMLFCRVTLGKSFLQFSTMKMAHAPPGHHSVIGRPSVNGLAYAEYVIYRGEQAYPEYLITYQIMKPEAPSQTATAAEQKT
UniProt Q9NZR1: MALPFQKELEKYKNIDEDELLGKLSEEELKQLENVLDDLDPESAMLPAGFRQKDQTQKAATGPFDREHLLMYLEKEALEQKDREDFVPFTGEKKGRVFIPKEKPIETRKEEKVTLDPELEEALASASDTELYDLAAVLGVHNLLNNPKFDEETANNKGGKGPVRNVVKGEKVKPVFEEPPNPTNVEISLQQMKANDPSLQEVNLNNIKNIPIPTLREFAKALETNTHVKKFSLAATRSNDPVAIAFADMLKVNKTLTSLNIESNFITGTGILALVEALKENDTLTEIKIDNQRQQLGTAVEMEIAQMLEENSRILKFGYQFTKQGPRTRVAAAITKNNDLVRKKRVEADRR
UniProt Q9H1E5: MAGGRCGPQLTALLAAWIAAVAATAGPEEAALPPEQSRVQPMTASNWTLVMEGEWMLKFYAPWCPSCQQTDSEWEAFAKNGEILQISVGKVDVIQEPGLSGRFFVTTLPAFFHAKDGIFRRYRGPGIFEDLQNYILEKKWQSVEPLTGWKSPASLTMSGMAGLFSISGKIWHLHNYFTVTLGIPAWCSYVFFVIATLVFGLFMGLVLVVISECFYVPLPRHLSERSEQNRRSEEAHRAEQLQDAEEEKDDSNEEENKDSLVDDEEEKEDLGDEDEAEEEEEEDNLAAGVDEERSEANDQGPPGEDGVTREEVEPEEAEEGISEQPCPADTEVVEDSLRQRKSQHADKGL
UniProt Q9NS69: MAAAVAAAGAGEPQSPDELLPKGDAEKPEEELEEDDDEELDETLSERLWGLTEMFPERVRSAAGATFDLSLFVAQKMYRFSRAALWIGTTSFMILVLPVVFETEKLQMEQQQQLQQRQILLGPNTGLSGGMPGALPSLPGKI
UniProt Q13641: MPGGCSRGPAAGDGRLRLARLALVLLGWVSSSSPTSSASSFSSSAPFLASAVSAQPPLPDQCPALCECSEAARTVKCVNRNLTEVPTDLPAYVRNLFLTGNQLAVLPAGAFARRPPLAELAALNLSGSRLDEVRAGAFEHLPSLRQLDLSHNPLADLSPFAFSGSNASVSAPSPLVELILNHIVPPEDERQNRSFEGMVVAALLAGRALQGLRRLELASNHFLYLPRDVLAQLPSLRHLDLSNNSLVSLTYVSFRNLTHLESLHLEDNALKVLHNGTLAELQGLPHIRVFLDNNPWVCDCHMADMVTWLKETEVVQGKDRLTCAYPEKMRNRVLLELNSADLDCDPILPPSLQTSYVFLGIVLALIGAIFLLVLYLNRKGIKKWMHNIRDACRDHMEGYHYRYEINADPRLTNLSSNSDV
UniProt Q96A57: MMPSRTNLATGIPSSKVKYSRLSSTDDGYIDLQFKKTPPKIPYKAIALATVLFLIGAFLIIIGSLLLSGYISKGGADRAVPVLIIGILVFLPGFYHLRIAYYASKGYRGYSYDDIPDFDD
UniProt Q96B49: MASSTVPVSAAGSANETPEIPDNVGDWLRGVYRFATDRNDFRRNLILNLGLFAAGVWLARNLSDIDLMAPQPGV
UniProt O60784, whole entry, looked up: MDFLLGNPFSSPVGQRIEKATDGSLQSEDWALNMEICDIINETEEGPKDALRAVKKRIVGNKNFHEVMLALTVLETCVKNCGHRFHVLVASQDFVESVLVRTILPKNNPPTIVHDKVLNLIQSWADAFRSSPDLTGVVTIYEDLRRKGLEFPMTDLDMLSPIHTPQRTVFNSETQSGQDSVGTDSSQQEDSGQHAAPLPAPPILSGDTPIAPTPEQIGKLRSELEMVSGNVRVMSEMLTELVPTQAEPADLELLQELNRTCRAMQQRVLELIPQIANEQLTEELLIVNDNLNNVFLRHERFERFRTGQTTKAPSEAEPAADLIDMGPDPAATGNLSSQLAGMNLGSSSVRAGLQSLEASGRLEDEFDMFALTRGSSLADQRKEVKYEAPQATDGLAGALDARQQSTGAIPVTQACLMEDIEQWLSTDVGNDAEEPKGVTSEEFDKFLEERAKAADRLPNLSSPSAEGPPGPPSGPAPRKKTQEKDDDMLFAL
UniProt Q12767: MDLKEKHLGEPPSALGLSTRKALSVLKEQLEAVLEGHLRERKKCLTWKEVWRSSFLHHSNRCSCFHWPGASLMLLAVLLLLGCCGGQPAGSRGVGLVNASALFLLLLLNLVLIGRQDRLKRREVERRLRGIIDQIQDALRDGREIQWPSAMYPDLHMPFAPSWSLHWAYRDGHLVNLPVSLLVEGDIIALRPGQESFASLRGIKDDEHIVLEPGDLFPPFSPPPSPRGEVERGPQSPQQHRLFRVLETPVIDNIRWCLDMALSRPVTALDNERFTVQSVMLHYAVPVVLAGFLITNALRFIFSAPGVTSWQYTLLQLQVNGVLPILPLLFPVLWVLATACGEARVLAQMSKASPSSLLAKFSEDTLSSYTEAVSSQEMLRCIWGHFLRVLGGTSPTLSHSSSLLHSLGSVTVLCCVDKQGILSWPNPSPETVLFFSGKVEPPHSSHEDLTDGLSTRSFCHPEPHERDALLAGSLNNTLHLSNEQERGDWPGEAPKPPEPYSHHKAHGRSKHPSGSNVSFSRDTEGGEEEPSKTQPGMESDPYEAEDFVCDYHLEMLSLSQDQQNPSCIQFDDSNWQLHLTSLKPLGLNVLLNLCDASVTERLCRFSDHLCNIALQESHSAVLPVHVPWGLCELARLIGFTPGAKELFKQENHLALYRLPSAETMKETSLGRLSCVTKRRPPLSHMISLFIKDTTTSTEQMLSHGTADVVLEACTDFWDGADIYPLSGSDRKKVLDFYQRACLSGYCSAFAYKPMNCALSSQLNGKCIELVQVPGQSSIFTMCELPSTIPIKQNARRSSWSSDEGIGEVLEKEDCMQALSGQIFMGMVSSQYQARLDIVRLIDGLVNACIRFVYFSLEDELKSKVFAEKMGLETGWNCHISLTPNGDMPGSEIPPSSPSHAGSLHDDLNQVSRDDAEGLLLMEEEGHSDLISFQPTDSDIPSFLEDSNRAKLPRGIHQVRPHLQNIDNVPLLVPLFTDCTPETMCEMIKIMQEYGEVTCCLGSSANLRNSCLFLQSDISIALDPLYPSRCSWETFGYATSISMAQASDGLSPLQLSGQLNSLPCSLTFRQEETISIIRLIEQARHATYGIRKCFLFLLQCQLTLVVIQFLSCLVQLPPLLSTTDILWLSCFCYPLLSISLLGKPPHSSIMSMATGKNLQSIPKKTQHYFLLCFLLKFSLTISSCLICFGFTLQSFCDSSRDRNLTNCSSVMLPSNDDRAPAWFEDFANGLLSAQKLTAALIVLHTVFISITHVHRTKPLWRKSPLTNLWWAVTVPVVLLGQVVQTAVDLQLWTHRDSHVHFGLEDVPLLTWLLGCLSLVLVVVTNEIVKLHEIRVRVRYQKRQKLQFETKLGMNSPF

Target	log2 fold change
TRA2B (UniProt P62995)	inactive: 0.011
TMEM9 (UniProt Q9P0T7)	inactive: 0.037
TNIP1 (UniProt Q15025)	inactive: 0.002
TP53RK (UniProt Q96S44)	inactive: -0.013
TNRC6A (UniProt Q8NDV7)	inactive: 0.092
TPM1 (UniProt H7BYY1)	inactive: -0.027
TPK1 (UniProt Q9H3S4)	inactive: 0.06
TPM3 (UniProt P06753)	inactive: -0.028
TMUB2 (UniProt Q71RG4)	inactive: 0.018
TOR1AIP1 (UniProt Q5JTV8)	inactive: -0.392
TMEM248 (UniProt Q9NWD8)	inactive: 0.138
TMPPE (UniProt Q6ZT21)	inactive: -0.008
TRA2A (UniProt Q13595)	inactive: -0.027
TNIP2 (UniProt Q8NFZ5)	inactive: -0.018
TNNC2 (UniProt P02585)	inactive: -0.022
TNKS (UniProt O95271)	inactive: -0.001
TMUB1 (UniProt Q9BVT8)	inactive: 0.033
TMOD2 (UniProt Q9NZR1)	inactive: 0.021
TPRG1L (UniProt Q5T0D9)	inactive: -0.062
TMX4 (UniProt Q9H1E5)	inactive: 0.044
TOMM22 (UniProt Q9NS69)	inactive: -0.029

Compound: CC1=C(C2=C(C=C1)C(=O)C3=CC=CC=C3N2CCCN)C
Experiment: as above
How it was run: as §1

Target	log2 fold change
TRA2B (UniProt P62995)	inactive: -0.072
TMEM9 (UniProt Q9P0T7)	inactive: -0.11
TNIP1 (UniProt Q15025)	inactive: 0.02
TP53RK (UniProt Q96S44)	inactive: -0.004
TPBG (UniProt Q13641)	inactive: -0.277
TNRC6A (UniProt Q8NDV7)	inactive: 0.031
TPM1 (UniProt H7BYY1)	inactive: 0.023
TPK1 (UniProt Q9H3S4)	inactive: -0.017
TMEM230 isoform 2 (UniProt Q96A57)	inactive: -0.033
TPM3 (UniProt P06753)	inactive: 0.013
TOMM6 (UniProt Q96B49)	inactive: -0.143
TMUB2 (UniProt Q71RG4)	inactive: -0.049
TOR1AIP1 (UniProt Q5JTV8)	inactive: 0.146
TOM1 (UniProt O60784)	inactive: -0.003
TMEM248 (UniProt Q9NWD8)	inactive: -0.021
TRA2A (UniProt Q13595)	inactive: 0.039
TNNC2 (UniProt P02585)	inactive: -0.029
TNKS (UniProt O95271)	inactive: -0.076
TNIK (UniProt C9J338)	inactive: -0.042
TMEM94 isoform 2 (UniProt Q12767)	inactive: -0.042
TMUB1 (UniProt Q9BVT8)	inactive: 0.075
TMOD2 (UniProt Q9NZR1)	inactive: 0.029
TPRG1L (UniProt Q5T0D9)	inactive: 0.028
TMX4 (UniProt Q9H1E5)	inactive: -0.058
TPM3 isoform 3 (UniProt P06753)	inactive: 0.005
TOMM22 (UniProt Q9NS69)	inactive: -0.008
